# Measured values from the supplement of paper PMC4604168 (melanoma cell lines).
# Some of the results follow. Many values rest on one well or one pass, so single values are uncertain.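 Imaging used 1,536-well plates; nuclei positive for cleaved PARP by antibody were divided by total DNA-stained nuclei to yield the apoptosis fraction. Doses for screening kept most cells viable, and cell lines differ markedly in resting and induced cleaved-PARP levels.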
# System: WM1716
# Assay: cleaved PARP positive nuclei fraction relative to DMSO control; melanoma cells; higher = more apoptosis
# Conditions: library dose: low library concentration; 72 h
row,Compound,cleaved PARP positive nuclei fraction [%]
1,"CO[C@H]1C[C@@H]2CC[C@@H](C)[C@@](O)(O2)C(=O)C(=O)N2CCCC[C@H]2C(=O)O[C@H]([C@H](C)C[C@@H]2CC[C@@H](OCCO)[C@H](OC)C2)CC(=O)[C@H](C)/C=C(\C)[C@@H](O)[C@@H](OC)C(=O)[C@H](C)C[C@H](C)/C=C/C=C/C=C/1C [everolimus] + Clc1ccc(Nc2nnc(Cc3ccncc3)c3ccccc23)cc1 [vatalanib] (first compound 0.02 µM, partner dose 2 µM)",110
2,"CO[C@H]1C[C@@H]2CC[C@@H](C)[C@@](O)(O2)C(=O)C(=O)N2CCCC[C@H]2C(=O)O[C@H]([C@H](C)C[C@@H]2CC[C@@H](OCCO)[C@H](OC)C2)CC(=O)[C@H](C)/C=C(\C)[C@@H](O)[C@@H](OC)C(=O)[C@H](C)C[C@H](C)/C=C/C=C/C=C/1C [everolimus] + O=C(O)c1ccc2c(c1)nc(Nc1cccc(Cl)c1)c1ccncc12 [CX4945] (first compound 0.02 µM, partner dose 0.4 µM)",108
3,"CO[C@H]1C[C@@H]2CC[C@@H](C)[C@@](O)(O2)C(=O)C(=O)N2CCCC[C@H]2C(=O)O[C@H]([C@H](C)C[C@@H]2CC[C@@H](OCCO)[C@H](OC)C2)CC(=O)[C@H](C)/C=C(\C)[C@@H](O)[C@@H](OC)C(=O)[C@H](C)C[C@H](C)/C=C/C=C/C=C/1C [everolimus] + CNC(=O)c1cc(Oc2ccc(NC(=O)Nc3ccc(Cl)c(C(F)(F)F)c3)cc2)ccn1 [sorafenib] (first compound 0.02 µM, partner dose 0.4 µM)",111

# System: WM1745
# Assay: as above
# Conditions: library dose: low library concentration; 72 h
row,Compound,cleaved PARP positive nuclei fraction [%]
1,"CO[C@H]1C[C@@H]2CC[C@@H](C)[C@@](O)(O2)C(=O)C(=O)N2CCCC[C@H]2C(=O)O[C@H]([C@H](C)C[C@@H]2CC[C@@H](OCCO)[C@H](OC)C2)CC(=O)[C@H](C)/C=C(\C)[C@@H](O)[C@@H](OC)C(=O)[C@H](C)C[C@H](C)/C=C/C=C/C=C/1C [everolimus] + c1cc(-c2cnn3cc(-c4ccc(OCCN5CCCCC5)cc4)cnc23)ccn1 [Dorsomorphin] (first compound 0.02 µM, partner dose 0.4 µM)",96.3
2,"Cn1c(=O)n(-c2ccc(C(C)(C)C#N)cc2)c2c3cc(-c4cnc5ccccc5c4)ccc3ncc21 + CO[C@H]1C[C@@H]2CC[C@@H](C)[C@@](O)(O2)C(=O)C(=O)N2CCCC[C@H]2C(=O)O[C@H]([C@H](C)C[C@@H]2CC[C@@H](OCCO)[C@H](OC)C2)CC(=O)[C@H](C)/C=C(\C)[C@@H](O)[C@@H](OC)C(=O)[C@H](C)C[C@H](C)/C=C/C=C/C=C/1C [everolimus] (first compound 0.004 µM, partner dose 0.02 µM)",128
3,"C[C@@H](Oc1cc(-c2cnn(C3CCNCC3)c2)cnc1N)c1c(Cl)ccc(F)c1Cl [Crizotinib] + CNC(=O)c1cc(Oc2ccc(NC(=O)Nc3ccc(Cl)c(C(F)(F)F)c3)cc2)ccn1 [sorafenib] (first compound 0.2 µM, partner dose 0.4 µM)",103
4,"CO[C@H]1C[C@@H]2CC[C@@H](C)[C@@](O)(O2)C(=O)C(=O)N2CCCC[C@H]2C(=O)O[C@H]([C@H](C)C[C@@H]2CC[C@@H](OCCO)[C@H](OC)C2)CC(=O)[C@H](C)/C=C(\C)[C@@H](O)[C@@H](OC)C(=O)[C@H](C)C[C@H](C)/C=C/C=C/C=C/1C [everolimus] + O=C(Nc1cccc(Cl)c1)Nc1ncc(CCNc2ncnc3ccsc23)s1 [SNS314] (first compound 0.02 µM, partner dose 0.0008 µM)",110
5,"CO[C@H]1C[C@@H]2CC[C@@H](C)[C@@](O)(O2)C(=O)C(=O)N2CCCC[C@H]2C(=O)O[C@H]([C@H](C)C[C@@H]2CC[C@@H](OCCO)[C@H](OC)C2)CC(=O)[C@H](C)/C=C(\C)[C@@H](O)[C@@H](OC)C(=O)[C@H](C)C[C@H](C)/C=C/C=C/C=C/1C [everolimus] + Oc1nc(-c2ccc(C(F)(F)F)cc2)nc2c1CSCC2 [XAV939] (first compound 0.02 µM, partner dose 2 µM)",94.9
6,"CO[C@H]1C[C@@H]2CC[C@@H](C)[C@@](O)(O2)C(=O)C(=O)N2CCCC[C@H]2C(=O)O[C@H]([C@H](C)C[C@@H]2CC[C@@H](OCCO)[C@H](OC)C2)CC(=O)[C@H](C)/C=C(\C)[C@@H](O)[C@@H](OC)C(=O)[C@H](C)C[C@H](C)/C=C/C=C/C=C/1C [everolimus] + Cc1nc(Nc2ncc(C(=O)Nc3c(C)cccc3Cl)s2)cc(N2CCN(CCO)CC2)n1 [dasatanib] (first compound 0.02 µM, partner dose 0.004 µM)",131
7,"CO[C@H]1C[C@@H]2CC[C@@H](C)[C@@](O)(O2)C(=O)C(=O)N2CCCC[C@H]2C(=O)O[C@H]([C@H](C)C[C@@H]2CC[C@@H](OCCO)[C@H](OC)C2)CC(=O)[C@H](C)/C=C(\C)[C@@H](O)[C@@H](OC)C(=O)[C@H](C)C[C@H](C)/C=C/C=C/C=C/1C [everolimus] + CC1(C)NC(=O)N(c2ccc([N+](=O)[O-])c(C(F)(F)F)c2)C1=O [nilutamide] (first compound 0.02 µM, partner dose 1 µM)",98.8
8,"CO[C@H]1C[C@@H]2CC[C@@H](C)[C@@](O)(O2)C(=O)C(=O)N2CCCC[C@H]2C(=O)O[C@H]([C@H](C)C[C@@H]2CC[C@@H](OCCO)[C@H](OC)C2)CC(=O)[C@H](C)/C=C(\C)[C@@H](O)[C@@H](OC)C(=O)[C@H](C)C[C@H](C)/C=C/C=C/C=C/1C [everolimus] + Nc1cccc2c1CN(C1CCC(=O)NC1=O)C2=O [lenalidomide] (first compound 0.02 µM, partner dose 1 µM)",107
9,"CO[C@H]1C[C@@H]2CC[C@@H](C)[C@@](O)(O2)C(=O)C(=O)N2CCCC[C@H]2C(=O)O[C@H]([C@H](C)C[C@@H]2CC[C@@H](OCCO)[C@H](OC)C2)CC(=O)[C@H](C)/C=C(\C)[C@@H](O)[C@@H](OC)C(=O)[C@H](C)C[C@H](C)/C=C/C=C/C=C/1C [everolimus] + Nc1nc(F)nc2c1ncn2[C@@H]1O[C@H](CO)[C@@H](O)[C@@H]1O [fludarabine] (first compound 0.02 µM, partner dose 0.2 µM)",102
10,"CO[C@H]1C[C@@H]2CC[C@@H](C)[C@@](O)(O2)C(=O)C(=O)N2CCCC[C@H]2C(=O)O[C@H]([C@H](C)C[C@@H]2CC[C@@H](OCCO)[C@H](OC)C2)CC(=O)[C@H](C)/C=C(\C)[C@@H](O)[C@@H](OC)C(=O)[C@H](C)C[C@H](C)/C=C/C=C/C=C/1C [everolimus] + C=CCn1c(=O)c2cnc(Nc3ccc(N4CCN(C)CC4)cc3)nc2n1-c1cccc(C(C)(C)O)n1 [MK1775] (first compound 0.02 µM, partner dose 0.02 µM)",128
11,"CO[C@H]1C[C@@H]2CC[C@@H](C)[C@@](O)(O2)C(=O)C(=O)N2CCCC[C@H]2C(=O)O[C@H]([C@H](C)C[C@@H]2CC[C@@H](OCCO)[C@H](OC)C2)CC(=O)[C@H](C)/C=C(\C)[C@@H](O)[C@@H](OC)C(=O)[C@H](C)C[C@H](C)/C=C/C=C/C=C/1C [everolimus] + Nc1ncn([C@H]2C[C@H](O)[C@@H](CO)O2)c(=O)n1 [decitabine] (first compound 0.02 µM, partner dose 0.1 µM)",40.7
12,"CO[C@H]1C[C@@H]2CC[C@@H](C)[C@@](O)(O2)C(=O)C(=O)N2CCCC[C@H]2C(=O)O[C@H]([C@H](C)C[C@@H]2CC[C@@H](OCCO)[C@H](OC)C2)CC(=O)[C@H](C)/C=C(\C)[C@@H](O)[C@@H](OC)C(=O)[C@H](C)C[C@H](C)/C=C/C=C/C=C/1C [everolimus] + CC(C)(C)c1cnc(CSc2cnc(NC(=O)C3CCNCC3)s2)o1 [SNS-032] (first compound 0.02 µM, partner dose 0.01 µM)",106
13,"CO[C@H]1C[C@@H]2CC[C@@H](C)[C@@](O)(O2)C(=O)C(=O)N2CCCC[C@H]2C(=O)O[C@H]([C@H](C)C[C@@H]2CC[C@@H](OCCO)[C@H](OC)C2)CC(=O)[C@H](C)/C=C(\C)[C@@H](O)[C@@H](OC)C(=O)[C@H](C)C[C@H](C)/C=C/C=C/C=C/1C [everolimus] + Cc1cc([N+](=O)[O-])ccc1NS(=O)(=O)c1cc(Cl)ccc1Cl [FH535] (first compound 0.02 µM, partner dose 1 µM)",110
14,"CO[C@H]1C[C@@H]2CC[C@@H](C)[C@@](O)(O2)C(=O)C(=O)N2CCCC[C@H]2C(=O)O[C@H]([C@H](C)C[C@@H]2CC[C@@H](OCCO)[C@H](OC)C2)CC(=O)[C@H](C)/C=C(\C)[C@@H](O)[C@@H](OC)C(=O)[C@H](C)C[C@H](C)/C=C/C=C/C=C/1C [everolimus] + O=C(O)c1ccc(-c2c[nH]c3ncc(-c4ccccc4)cc23)cc1C1CCCC1 [GSK650394] (first compound 0.02 µM, partner dose 0.16 µM)",89
15,"CO[C@H]1C[C@@H]2CC[C@@H](C)[C@@](O)(O2)C(=O)C(=O)N2CCCC[C@H]2C(=O)O[C@H]([C@H](C)C[C@@H]2CC[C@@H](OCCO)[C@H](OC)C2)CC(=O)[C@H](C)/C=C(\C)[C@@H](O)[C@@H](OC)C(=O)[C@H](C)C[C@H](C)/C=C/C=C/C=C/1C [everolimus] + COc1ccc(COc2ccc(Cc3cnc(N)nc3N)cc2OC)cc1 [GW2580] (first compound 0.02 µM, partner dose 1 µM)",110

# 2 successive entries from above, quoted:
row,Compound,cleaved PARP positive nuclei fraction [%]
12,"CO[C@H]1C[C@@H]2CC[C@@H](C)[C@@](O)(O2)C(=O)C(=O)N2CCCC[C@H]2C(=O)O[C@H]([C@H](C)C[C@@H]2CC[C@@H](OCCO)[C@H](OC)C2)CC(=O)[C@H](C)/C=C(\C)[C@@H](O)[C@@H](OC)C(=O)[C@H](C)C[C@H](C)/C=C/C=C/C=C/1C [everolimus] + CC(C)(C)c1cnc(CSc2cnc(NC(=O)C3CCNCC3)s2)o1 [SNS-032] (first compound 0.02 µM, partner dose 0.01 µM)",106
13,"CO[C@H]1C[C@@H]2CC[C@@H](C)[C@@](O)(O2)C(=O)C(=O)N2CCCC[C@H]2C(=O)O[C@H]([C@H](C)C[C@@H]2CC[C@@H](OCCO)[C@H](OC)C2)CC(=O)[C@H](C)/C=C(\C)[C@@H](O)[C@@H](OC)C(=O)[C@H](C)C[C@H](C)/C=C/C=C/C=C/1C [everolimus] + Cc1cc([N+](=O)[O-])ccc1NS(=O)(=O)c1cc(Cl)ccc1Cl [FH535] (first compound 0.02 µM, partner dose 1 µM)",110
